Measured values as given in publication PMC4868969.
No constants are given. Whether binding was seen depends on the method and setting. In cells and extracts the contact can be indirect. Some entries that bind do so weakly or less than the wild type. Where a sequence is shown, tags or fusion partners need not be part of it.

T1: Os8N3/Xa13-nYFP (rice (O. sativa)) (UniProt Q6YZF3)
T1 sequence: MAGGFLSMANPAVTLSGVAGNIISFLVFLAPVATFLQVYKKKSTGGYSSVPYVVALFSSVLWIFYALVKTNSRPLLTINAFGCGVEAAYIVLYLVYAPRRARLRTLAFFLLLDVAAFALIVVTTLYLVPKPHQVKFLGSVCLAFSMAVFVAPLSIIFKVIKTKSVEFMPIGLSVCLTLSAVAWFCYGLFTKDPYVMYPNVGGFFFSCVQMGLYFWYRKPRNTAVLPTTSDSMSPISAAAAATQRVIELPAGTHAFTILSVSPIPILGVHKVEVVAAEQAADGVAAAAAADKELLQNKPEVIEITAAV

T2: 3xFLAG-Xa13/Os8N3 (35S::Os8N3-3x flag) (rice (O. sativa)) (UniProt Q6YZF3)
T2 sequence: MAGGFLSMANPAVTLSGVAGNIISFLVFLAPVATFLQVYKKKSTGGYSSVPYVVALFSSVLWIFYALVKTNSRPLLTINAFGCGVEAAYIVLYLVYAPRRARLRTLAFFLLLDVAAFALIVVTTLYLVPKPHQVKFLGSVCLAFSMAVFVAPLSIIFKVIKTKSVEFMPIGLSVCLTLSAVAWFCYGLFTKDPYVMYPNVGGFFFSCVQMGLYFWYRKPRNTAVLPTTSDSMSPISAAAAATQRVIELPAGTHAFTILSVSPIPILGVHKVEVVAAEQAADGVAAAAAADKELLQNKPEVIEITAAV


Experiments:
[1] = target: T1, Os8N3/Xa13-nYFP (rice (O. sativa)); experiment: split reporter; BiFC with the C-terminal and N-terminal halves of YFP, co-expressed in TP309 rice protoplasts, confocal microscopy
[2] = target: T2, 3xFLAG-Xa13/Os8N3 (35S::Os8N3-3x flag) (rice (O. sativa)); experiment: co-IP; rice protoplasts co-expressing FLAG-tagged Os8N3 and YFP-tagged OsAPX8 constructs; immunoprecipitation with anti-FLAG agarose, blot with anti-GFP and anti-FLAG

binding [1] | binding [2] | Binder
binds |  | OsAPX8-cYFP (enzyme, UniProt Q69SV0 77-478) CMAAAAVAASDAAQLKSAREDIREILKTTYCHPIMVRLGWHDSGTYDKNIEEWPQRGGADGSLRFDAELSHGANAGLINALKLIQPIKDKYPGITYADLFQLASATAIEEAGGPKIPMKYGRVDVTAAEQCPPEGRLPDAGPRVPADHLREVFYRMGLDDKEIVALSGAHTLGRSRPDRSGWGKPETKYTKDGPGEPGGQSWTVEWLKFDNSYFKDIKEQRDQDLLVLPTDAALFEDPSFKVYAEKYAEDQEAFFKDYAEAHAKLSDLGAKFDPPEGFSLDDEPAVEEKDPEPAPAPAAAPPPPPVEEKKEAEPTPVPVTVGAAVASSPADDNNGAAPQPEPFVAAKYSYGKKELSDSMKQKIRAEYEGFGGSPDKPLQSNYFLNIMLLIGGLAFLTSLLGS
 | binds | OsAPX8-YFP (35S::OsAPX8-YFP, full length) (enzyme, UniProt Q69SV0 77-478) CMAAAAVAASDAAQLKSAREDIREILKTTYCHPIMVRLGWHDSGTYDKNIEEWPQRGGADGSLRFDAELSHGANAGLINALKLIQPIKDKYPGITYADLFQLASATAIEEAGGPKIPMKYGRVDVTAAEQCPPEGRLPDAGPRVPADHLREVFYRMGLDDKEIVALSGAHTLGRSRPDRSGWGKPETKYTKDGPGEPGGQSWTVEWLKFDNSYFKDIKEQRDQDLLVLPTDAALFEDPSFKVYAEKYAEDQEAFFKDYAEAHAKLSDLGAKFDPPEGFSLDDEPAVEEKDPEPAPAPAAAPPPPPVEEKKEAEPTPVPVTVGAAVASSPADDNNGAAPQPEPFVAAKYSYGKKELSDSMKQKIRAEYEGFGGSPDKPLQSNYFLNIMLLIGGLAFLTSLLGS
 | no binding | OsAPX8_(1-326)-YFP (domain or fragment, UniProt Q69SV0 77-326) CMAAAAVAASDAAQLKSAREDIREILKTTYCHPIMVRLGWHDSGTYDKNIEEWPQRGGADGSLRFDAELSHGANAGLINALKLIQPIKDKYPGITYADLFQLASATAIEEAGGPKIPMKYGRVDVTAAEQCPPEGRLPDAGPRVPADHLREVFYRMGLDDKEIVALSGAHTLGRSRPDRSGWGKPETKYTKDGPGEPGGQSWTVEWLKFDNSYFKDIKEQRDQDLLVLPTDAALFEDPSFKVYAEKYAED
